2 molecules from paper PMC6255864 can be followed below.

The target of test [1] is annexin-V, membrane-bound trimeric form (A5) (human) (UniProt P08758). Briefly: HS-AFM height spectroscopy (HS-AFM-HS); tip held at a fixed x,y position over a DOPC/DOPS (8:2) supported bilayer; unlabeled membrane-bound A5 diffusing under the tip; oligomer surface densities from dwell-time peaks fitted to Eq. (5); 2D dissociation constants in µm^-2; 10 mM HEPES pH 7.4, 150 mM NaCl, CaCl2 0-2 mM; 'monomer' = one A5 trimer; both purified.

Test [2] addresses T1, annexin-V, membrane-bound trimeric form (A5) (human), P08758.
T1 chain: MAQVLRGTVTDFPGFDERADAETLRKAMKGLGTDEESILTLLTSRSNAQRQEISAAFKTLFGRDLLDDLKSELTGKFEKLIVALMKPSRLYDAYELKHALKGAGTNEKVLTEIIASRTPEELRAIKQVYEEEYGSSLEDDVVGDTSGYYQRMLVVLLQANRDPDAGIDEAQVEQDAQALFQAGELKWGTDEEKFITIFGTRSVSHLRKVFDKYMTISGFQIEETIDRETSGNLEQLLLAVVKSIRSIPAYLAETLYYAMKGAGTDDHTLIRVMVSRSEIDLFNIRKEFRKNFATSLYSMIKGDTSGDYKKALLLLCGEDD
Briefly: HS-AFM imaging; annexin-V from solution on a DOPC/DOPS (8:2) supported lipid bilayer on mica; Ca2+ released from NP-EGTA by UV; 10 mM HEPES pH 7.4, 150 mM NaCl; self-assembly into p6 2D-crystals; both purified. As to conditions: remark: other sources report otherwise.

Results are given in words; binding and its absence hold for the method and conditions named. Some binding calls cover weakened binding; strength is not graded here.

On to “annexin-V, membrane-bound trimeric form (A5) (from UniProt P08758 1-320)”, for which, in test [1], the binding entry is on record as “binds weakly”.

B1: annexin-V, membrane-bound trimeric form (A5), P08758 1-320 (natural protein)
chain: MAQVLRGTVTDFPGFDERADAETLRKAMKGLGTDEESILTLLTSRSNAQRQEISAAFKTLFGRDLLDDLKSELTGKFEKLIVALMKPSRLYDAYELKHALKGAGTNEKVLTEIIASRTPEELRAIKQVYEEEYGSSLEDDVVGDTSGYYQRMLVVLLQANRDPDAGIDEAQVEQDAQALFQAGELKWGTDEEKFITIFGTRSVSHLRKVFDKYMTISGFQIEETIDRETSGNLEQLLLAVVKSIRSIPAYLAETLYYAMKGAGTDDHTLIRVMVSRSEIDLFNIRKEFRKNFATSLYSMIKGDTSGDYKKALLLLCGEDD
With B1, the binding entry in test [2] is reported as “binds”.
